Experimental data as given in PMC8546420.
Where two headings read alike, the source gives them in different places. Results are given in words; binding and its absence hold for the method and conditions named. In cells and extracts the contact can be indirect. These calls come from enrichment with a bait or labelling near it, and not all partners need be listed. Tags and fused reporters may be left off the sequences shown.

Amino acid sequences for entries named in this document (tags omitted).
UniProt O75592: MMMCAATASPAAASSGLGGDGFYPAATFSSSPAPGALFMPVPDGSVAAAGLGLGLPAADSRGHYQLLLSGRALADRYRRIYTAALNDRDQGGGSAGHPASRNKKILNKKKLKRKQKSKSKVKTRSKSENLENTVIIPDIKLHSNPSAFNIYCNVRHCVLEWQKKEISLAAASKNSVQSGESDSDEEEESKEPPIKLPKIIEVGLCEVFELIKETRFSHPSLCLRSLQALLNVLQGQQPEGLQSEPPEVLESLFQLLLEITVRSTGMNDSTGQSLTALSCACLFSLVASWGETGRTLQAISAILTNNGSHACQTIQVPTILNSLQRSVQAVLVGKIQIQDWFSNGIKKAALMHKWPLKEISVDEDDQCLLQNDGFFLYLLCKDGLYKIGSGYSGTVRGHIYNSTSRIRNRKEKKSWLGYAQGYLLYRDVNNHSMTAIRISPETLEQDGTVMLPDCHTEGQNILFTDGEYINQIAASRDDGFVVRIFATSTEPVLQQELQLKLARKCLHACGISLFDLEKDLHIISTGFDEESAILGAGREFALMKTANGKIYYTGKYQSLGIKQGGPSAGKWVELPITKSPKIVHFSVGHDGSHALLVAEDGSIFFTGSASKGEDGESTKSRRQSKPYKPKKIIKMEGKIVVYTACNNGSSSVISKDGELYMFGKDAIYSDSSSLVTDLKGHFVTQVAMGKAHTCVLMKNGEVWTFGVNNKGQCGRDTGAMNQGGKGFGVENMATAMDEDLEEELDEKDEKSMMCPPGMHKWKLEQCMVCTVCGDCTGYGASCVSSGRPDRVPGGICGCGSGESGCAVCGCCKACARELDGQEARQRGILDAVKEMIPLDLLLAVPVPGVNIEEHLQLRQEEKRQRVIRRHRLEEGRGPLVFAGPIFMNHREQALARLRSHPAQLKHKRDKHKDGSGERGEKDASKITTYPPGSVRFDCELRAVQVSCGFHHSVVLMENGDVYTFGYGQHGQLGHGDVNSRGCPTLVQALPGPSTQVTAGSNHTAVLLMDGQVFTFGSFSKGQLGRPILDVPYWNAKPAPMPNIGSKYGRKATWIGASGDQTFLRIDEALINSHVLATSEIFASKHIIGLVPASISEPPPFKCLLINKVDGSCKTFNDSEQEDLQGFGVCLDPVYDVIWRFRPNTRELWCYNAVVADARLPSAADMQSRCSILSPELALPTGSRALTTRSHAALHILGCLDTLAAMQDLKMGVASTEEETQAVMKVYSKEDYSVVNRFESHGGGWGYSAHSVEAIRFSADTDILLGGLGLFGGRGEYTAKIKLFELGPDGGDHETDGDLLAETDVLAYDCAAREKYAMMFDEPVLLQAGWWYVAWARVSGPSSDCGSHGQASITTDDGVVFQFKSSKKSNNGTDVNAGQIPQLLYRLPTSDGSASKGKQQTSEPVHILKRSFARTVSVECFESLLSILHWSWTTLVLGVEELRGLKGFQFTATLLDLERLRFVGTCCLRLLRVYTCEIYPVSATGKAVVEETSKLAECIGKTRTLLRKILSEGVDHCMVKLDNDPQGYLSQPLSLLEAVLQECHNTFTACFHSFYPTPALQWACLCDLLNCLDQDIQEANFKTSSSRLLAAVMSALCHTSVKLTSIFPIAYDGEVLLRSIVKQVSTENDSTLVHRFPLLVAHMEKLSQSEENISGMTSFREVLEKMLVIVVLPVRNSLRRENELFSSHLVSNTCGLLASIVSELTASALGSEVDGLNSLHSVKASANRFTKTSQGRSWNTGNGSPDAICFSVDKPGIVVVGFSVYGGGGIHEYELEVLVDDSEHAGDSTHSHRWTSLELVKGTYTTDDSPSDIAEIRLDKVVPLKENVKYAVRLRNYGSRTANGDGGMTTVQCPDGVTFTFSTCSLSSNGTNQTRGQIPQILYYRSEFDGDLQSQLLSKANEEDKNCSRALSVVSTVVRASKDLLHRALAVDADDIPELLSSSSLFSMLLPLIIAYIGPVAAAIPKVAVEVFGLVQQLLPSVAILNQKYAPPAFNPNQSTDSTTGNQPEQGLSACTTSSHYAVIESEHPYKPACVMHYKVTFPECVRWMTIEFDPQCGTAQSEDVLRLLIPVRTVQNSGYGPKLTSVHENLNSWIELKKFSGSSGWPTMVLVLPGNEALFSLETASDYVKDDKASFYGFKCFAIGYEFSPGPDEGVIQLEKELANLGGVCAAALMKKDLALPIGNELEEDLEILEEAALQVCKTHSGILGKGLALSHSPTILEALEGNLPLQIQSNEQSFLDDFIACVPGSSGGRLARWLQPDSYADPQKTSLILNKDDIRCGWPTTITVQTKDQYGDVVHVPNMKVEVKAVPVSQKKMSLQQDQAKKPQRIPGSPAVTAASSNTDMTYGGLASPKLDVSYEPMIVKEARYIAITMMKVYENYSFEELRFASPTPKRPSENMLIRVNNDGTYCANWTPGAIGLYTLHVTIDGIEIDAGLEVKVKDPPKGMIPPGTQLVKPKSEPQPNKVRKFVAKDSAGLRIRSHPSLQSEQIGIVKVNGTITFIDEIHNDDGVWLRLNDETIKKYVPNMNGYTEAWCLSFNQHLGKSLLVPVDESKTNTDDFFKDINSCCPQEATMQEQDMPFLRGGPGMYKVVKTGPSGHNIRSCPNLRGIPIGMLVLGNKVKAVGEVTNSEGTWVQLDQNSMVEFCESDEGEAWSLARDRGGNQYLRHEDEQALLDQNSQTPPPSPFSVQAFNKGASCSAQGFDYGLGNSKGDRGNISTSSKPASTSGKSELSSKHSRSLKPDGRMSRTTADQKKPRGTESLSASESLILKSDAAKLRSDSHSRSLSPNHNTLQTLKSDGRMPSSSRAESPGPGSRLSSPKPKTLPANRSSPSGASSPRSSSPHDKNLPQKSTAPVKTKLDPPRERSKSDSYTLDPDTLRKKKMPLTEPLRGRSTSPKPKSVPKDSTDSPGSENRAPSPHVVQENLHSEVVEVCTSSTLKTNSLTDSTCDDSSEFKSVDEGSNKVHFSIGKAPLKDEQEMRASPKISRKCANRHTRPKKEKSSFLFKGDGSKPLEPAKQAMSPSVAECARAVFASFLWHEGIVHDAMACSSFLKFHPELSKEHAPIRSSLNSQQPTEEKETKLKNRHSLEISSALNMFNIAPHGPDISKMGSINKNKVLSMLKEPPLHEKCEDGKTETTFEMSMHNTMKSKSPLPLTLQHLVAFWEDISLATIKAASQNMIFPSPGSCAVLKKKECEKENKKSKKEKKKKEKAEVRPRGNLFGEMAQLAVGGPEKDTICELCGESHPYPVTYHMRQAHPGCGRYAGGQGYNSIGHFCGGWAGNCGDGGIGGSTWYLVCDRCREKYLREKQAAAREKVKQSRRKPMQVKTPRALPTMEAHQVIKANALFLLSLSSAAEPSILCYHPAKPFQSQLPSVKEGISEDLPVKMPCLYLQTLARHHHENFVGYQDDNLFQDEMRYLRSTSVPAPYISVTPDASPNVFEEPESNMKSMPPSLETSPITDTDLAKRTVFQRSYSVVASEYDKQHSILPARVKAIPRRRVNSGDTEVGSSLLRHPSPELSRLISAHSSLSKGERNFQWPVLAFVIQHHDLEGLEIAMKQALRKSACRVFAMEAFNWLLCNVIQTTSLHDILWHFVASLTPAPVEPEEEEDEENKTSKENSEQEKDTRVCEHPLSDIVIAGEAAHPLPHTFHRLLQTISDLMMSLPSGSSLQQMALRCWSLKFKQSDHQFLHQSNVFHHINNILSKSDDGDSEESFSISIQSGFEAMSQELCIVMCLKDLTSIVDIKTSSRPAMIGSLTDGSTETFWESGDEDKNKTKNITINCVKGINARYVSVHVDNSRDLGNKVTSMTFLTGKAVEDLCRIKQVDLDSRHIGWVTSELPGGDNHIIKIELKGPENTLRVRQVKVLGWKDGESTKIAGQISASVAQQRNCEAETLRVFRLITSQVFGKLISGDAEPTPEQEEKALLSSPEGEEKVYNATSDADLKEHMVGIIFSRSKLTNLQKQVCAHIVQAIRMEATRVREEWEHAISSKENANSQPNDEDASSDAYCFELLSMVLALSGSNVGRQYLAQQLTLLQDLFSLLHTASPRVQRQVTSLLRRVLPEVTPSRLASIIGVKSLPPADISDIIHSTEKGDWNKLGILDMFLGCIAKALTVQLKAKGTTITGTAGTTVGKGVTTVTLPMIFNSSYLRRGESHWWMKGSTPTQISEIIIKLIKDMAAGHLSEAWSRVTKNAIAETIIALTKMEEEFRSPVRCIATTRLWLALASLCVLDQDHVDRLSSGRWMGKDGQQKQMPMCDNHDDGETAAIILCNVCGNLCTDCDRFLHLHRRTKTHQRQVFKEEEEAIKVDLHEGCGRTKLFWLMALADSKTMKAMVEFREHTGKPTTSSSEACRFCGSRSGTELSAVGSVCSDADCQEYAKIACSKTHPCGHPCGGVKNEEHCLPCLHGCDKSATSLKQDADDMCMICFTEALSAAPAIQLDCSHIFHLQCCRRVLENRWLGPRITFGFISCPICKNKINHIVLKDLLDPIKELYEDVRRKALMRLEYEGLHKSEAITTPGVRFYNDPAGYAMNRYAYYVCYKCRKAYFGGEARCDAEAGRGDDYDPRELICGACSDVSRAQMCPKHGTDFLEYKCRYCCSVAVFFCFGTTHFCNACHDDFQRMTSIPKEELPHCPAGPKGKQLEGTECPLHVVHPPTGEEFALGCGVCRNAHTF
UniProt Q99570: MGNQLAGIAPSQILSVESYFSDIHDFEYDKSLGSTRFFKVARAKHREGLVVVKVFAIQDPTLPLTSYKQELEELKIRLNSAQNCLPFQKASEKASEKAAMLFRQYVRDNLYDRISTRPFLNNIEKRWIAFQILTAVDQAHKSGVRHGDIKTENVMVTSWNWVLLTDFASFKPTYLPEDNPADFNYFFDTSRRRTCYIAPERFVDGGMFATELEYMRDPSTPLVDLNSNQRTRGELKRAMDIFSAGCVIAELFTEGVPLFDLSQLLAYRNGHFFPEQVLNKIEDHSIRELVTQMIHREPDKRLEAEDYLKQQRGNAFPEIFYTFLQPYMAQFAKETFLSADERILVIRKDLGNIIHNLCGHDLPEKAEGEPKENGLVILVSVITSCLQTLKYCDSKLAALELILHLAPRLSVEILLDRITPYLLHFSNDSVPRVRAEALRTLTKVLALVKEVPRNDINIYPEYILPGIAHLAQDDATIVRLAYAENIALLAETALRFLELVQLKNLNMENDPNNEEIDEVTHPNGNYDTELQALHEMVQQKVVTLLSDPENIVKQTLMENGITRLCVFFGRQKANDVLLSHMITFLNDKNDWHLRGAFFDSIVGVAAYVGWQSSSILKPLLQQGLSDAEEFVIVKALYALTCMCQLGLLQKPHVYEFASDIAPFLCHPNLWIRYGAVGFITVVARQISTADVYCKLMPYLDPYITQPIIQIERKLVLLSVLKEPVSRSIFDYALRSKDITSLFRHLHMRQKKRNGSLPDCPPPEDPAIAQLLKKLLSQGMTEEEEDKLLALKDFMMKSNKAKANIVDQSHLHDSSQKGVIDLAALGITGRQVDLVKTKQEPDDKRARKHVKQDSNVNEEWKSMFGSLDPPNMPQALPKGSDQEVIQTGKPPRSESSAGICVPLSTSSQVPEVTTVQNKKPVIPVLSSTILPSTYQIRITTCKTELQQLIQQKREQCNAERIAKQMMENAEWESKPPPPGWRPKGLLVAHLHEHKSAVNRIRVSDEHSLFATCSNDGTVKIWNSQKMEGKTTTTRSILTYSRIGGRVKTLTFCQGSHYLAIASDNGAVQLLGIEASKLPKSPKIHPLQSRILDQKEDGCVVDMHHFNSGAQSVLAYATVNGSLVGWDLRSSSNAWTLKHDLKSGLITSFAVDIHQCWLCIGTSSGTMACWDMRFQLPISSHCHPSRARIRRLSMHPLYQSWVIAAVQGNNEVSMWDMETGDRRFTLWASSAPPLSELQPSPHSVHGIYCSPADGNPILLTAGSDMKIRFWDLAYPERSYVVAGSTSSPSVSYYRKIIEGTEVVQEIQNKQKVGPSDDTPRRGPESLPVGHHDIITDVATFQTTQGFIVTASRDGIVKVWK
UniProt Q15170: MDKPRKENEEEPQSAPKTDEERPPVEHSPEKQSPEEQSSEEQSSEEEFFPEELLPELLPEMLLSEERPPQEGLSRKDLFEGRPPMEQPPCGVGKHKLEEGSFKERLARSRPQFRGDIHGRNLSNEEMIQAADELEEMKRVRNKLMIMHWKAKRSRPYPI

T1: USP11(C318S)-GFP (catalytically inactive USP11, GFP-tagged) (human) (UniProt P51784)
T1 sequence: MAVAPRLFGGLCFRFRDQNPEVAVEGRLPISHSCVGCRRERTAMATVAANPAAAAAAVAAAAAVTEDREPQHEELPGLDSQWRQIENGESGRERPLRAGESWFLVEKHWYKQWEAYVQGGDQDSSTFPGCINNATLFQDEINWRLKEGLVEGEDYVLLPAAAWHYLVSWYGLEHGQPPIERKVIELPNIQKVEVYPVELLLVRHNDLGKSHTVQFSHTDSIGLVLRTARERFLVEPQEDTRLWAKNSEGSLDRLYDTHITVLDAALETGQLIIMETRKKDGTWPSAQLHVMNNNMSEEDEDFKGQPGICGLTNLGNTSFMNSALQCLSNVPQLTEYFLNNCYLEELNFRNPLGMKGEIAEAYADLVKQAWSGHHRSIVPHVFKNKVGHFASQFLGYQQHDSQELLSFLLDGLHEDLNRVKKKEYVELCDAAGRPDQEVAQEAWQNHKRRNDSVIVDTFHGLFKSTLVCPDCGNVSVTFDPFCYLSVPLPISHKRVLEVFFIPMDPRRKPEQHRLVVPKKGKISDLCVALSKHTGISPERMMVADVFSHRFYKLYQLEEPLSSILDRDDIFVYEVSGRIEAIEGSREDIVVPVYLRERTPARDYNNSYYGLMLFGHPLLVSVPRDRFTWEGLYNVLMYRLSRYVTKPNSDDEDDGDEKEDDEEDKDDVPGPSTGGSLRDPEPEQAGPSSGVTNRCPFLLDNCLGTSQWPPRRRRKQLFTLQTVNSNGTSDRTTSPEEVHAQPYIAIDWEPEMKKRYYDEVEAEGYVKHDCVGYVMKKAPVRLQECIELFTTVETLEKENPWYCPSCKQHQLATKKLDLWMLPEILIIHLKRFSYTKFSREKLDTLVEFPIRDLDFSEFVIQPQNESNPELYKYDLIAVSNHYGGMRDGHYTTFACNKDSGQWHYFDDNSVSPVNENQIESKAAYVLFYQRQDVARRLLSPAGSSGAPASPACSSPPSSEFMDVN


Columns and labels:
[1] = molecular target: T1, USP11(C318S)-GFP (catalytically inactive USP11, GFP-tagged) (human); assay: affinity purification with mass spectrometry; GFP-Trap IP of USP11(C318S)-GFP from 293 cells treated with Torin 1 for 4 h, compared with GFP alone; label-free quantification, three biological replicates
[2] = molecular target: T1, USP11(C318S)-GFP (catalytically inactive USP11, GFP-tagged) (human); assay: as above; remark: listed apart in the source

Molecule	binding [1]	binding [2]
MYCBP2 (from UniProt O75592 1-4678)	binds	–
VPS15 (PIK3R4), endogenous, interactome hit (from UniProt Q99570 1-1358)	binds	–
BIRC6 (from UniProt Q9NR09 1-4857)	binds	–
ZNF598 (protein, UniProt Q86UK7 1-904) MAAAGGAEGRRAALEAAAAAAPERGGGSCVLCCGDLEATALGRCDHPVCYRCSTKMRVLCEQRYCAVCREELRQVVFGKKLPAFATIPIHQLQHEKKYDIYFADGKVYALYRQLLQHECPRCPELPPFSLFGDLEQHMRRQHELFCCRLCLQHLQIFTYERKWYSRKDLARHRMQGDPDDTSHRGHPLCKFCDERYLDNDELLKHLRRDHYFCHFCDSDGAQDYYSDYAYLREHFREKHFLCEEGRCSTEQFTHAFRTEIDLKAHRTACHSRSRAEARQNRHIDLQFSYAPRHSRRNEGVVGGEDYEEVDRYSRQGRVARAGTRGAQQSRRGSWRYKREEEDREVAAAVRASVAAQQQEEARRSEDQEEGGRPKKEEAAARGPEDPRGPRRSPRTQGEGPGPKETSTNGPVSQEAFSVTGPAAPGCVGVPGALPPPSPKLKDEDFPSLSASTSSSCSTAATPGPVGLALPYAIPARGRSAFQEEDFPALVSSVPKPGTAPTSLVSAWNSSSSSKKVAQPPLSAQATGSGQPTRKAGKGSRGGRKGGPPFTQEEEEDGGPALQELLSTRPTGSVSSTLGLASIQPSKVGKKKKVGSEKPGTTLPQPPPATCPPGALQAPEAPASRAEGPVAVVVNGHTEGPAPARSAPKEPPGLPRPLGSFPCPTPQEDFPALGGPCPPRMPPPPGFSAVVLLKGTPPPPPPGLVPPISKPPPGFSGLLPSPHPACVPSPATTTTTKAPRLLPAPRAYLVPENFRERNLQLIQSIRDFLQSDEARFSEFKSHSGEFRQGLISAAQYYKSCRDLLGENFQKVFNELLVLLPDTAKQQELLSAHTDFCNREKPLSTKSKKNKKSAWQATTQQAGLDCRVCPTCQQVLAHGDASSHQALHAARDDDFPSLQAIARIIT	–	binds

Further lines, results first:

binding [1]	binding [2]	Molecule
binds	–	USP7 (from UniProt Q93009 1-1102) (enzyme)
binds	–	TCEAL1 (from UniProt Q15170 1-159)
